# Primary screen of a compound library

Data taken from ChEMBL document CHEMBL3988442, “University of Dundee, Small-Polar-MMV Screening Library” (2021).

Results are given as percent effect.
How 0% and 100% were set is not recorded. Most values in the screen are low, and negative values occur.
Compounds were drawn at random from those tested, without regard to their results.
Two or more numbers in one place are separate tests of the same structure; such repeats can differ widely.

Mtb cholesterol medium: 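Growth of Mycobacterium tuberculosis over 4 days (cholesterol / DPPC medium with tyloxapol); the read-out is not stated. Compounds at 50 µM. Higher reads as more growth inhibition (inferred: compounds with an IC50 in retests scored well above the rest). Of about 69,000 compounds tested this way, about 370 (0.54%) reached 50% or more in at least one test.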
Mtb glucose medium: 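Phenotypic screen: M. tuberculosis growth, glucose 7H9 medium, 3 days; the read-out is not stated. Compounds at 50 µM. Higher reads as more growth inhibition (inferred: compounds with an IC50 in retests scored well above the rest). About 69,000 compounds were tested under these conditions; 1.1% (about 760) showed 50% or more at least once.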

compound: [H][C@@]12CN(C(=O)NC(C)C)C[C@@]1([H])N(CC(C)C)C(=O)CO2
Mtb cholesterol medium: -3.708
Mtb glucose medium: -16.29 & -5.844

compound: COCCCC1CCCCN1Cc1cn2cc(C)ccc2n1 (stereo not drawn)
Mtb cholesterol medium: -10.32
Mtb glucose medium: -10.85

compound: Cc1ccc(NC(=O)CS(=O)(=O)NC2CCC(C)CC2)nc1 (stereo not drawn)
Mtb cholesterol medium: 20.86
Mtb glucose medium: 50.81

compound: CCN(Cc1nc(COC)no1)Cc1ccccc1OCC(=O)O
Mtb cholesterol medium: -0.2704
Mtb glucose medium: 25.81

compound: Cc1nc(-c2noc3ccc(C(=O)NCCN(C)C)cc23)co1
Mtb cholesterol medium: -3.051
Mtb glucose medium: -14.93 & 6.99

compound: CCC(CNC(=O)CNC(C)=O)Oc1cccc(F)c1 (stereo not drawn)
Mtb cholesterol medium: -6.193
Mtb glucose medium: 2.251 & -9.17

compound: Cc1nccnc1N1Cc2cnn(Cc3ccc(F)cc3)c2C1
Mtb cholesterol medium: 0.1021 & -11.5
Mtb glucose medium: 23.67

compound: O=C(O)C(F)(F)F.[H][C@]12CCN(c3ccccn3)[C@@]1([H])CC[C@H](COCC(=O)N1CCCC1)O2
Mtb cholesterol medium: -24.94
Mtb glucose medium: -9.004

compound: Cc1cscc1C(=O)Nc1cc(CSCCO)ccn1
Mtb cholesterol medium: 14.77
Mtb glucose medium: 25.35

compound: [H][C@@]12CCN(C(=O)COc3ccc(C)cc3)C[C@]1(COC)CCO2
Mtb cholesterol medium: 6.521
Mtb glucose medium: -8.581

compound: CCC(=O)NC1CCCN(C(=O)c2ccc(OCC3CC3)nc2)C1 (stereo not drawn)
Mtb cholesterol medium: -14.81
Mtb glucose medium: 3.583 & -3.13

compound: O=C1CCC2(CCOC2)CN1CCCOc1cccnc1 (stereo not drawn)
Mtb cholesterol medium: 12.72
Mtb glucose medium: 17.04

compound: O=C(O)C(F)(F)F.O=C([C@H]1CCCO1)N1CCN(CCn2cccn2)c2ncccc2C1
Mtb cholesterol medium: 16.82
Mtb glucose medium: 14.69

compound: Cc1nc(CN2CCOC3(CCCN(c4nccs4)C3)C2)cs1 (stereo not drawn)
Mtb cholesterol medium: -26.51
Mtb glucose medium: -23.73 & 2.227

compound: CC(C)(CNC(=O)NCCc1ccn(-c2ccccc2)n1)C(N)=O
Mtb cholesterol medium: -3.814
Mtb glucose medium: -1.916

compound: Cc1noc(CN(Cc2cccc(C#N)c2)Cc2cccs2)n1
Mtb cholesterol medium: 42.96
Mtb glucose medium: 46.64

compound: CNC(=O)NC(=O)CN1CCN(CC(F)(F)F)CC1(C)C
Mtb cholesterol medium: -0.04497
Mtb glucose medium: 7.827

compound: O=C(c1ccc2c(c1)[nH]c(=O)n2C1CCCC1)N1CCC1
Mtb cholesterol medium: 7.369
Mtb glucose medium: -2.012

compound: CCC(=O)NC1CCCN(Cc2ccc(NC(C)=O)cc2)C1 (stereo not drawn)
Mtb cholesterol medium: -6.256
Mtb glucose medium: -1.763

compound: CC(NC(=O)N1CCS(=O)(=O)CC1)c1ccc(F)cc1Cl (stereo not drawn)
Mtb cholesterol medium: -1.602
Mtb glucose medium: -2.329

compound: Cc1ccc2nc(CN3CCCCC3C(=O)N3CCOCC3)cn2c1 (stereo not drawn)
Mtb cholesterol medium: -9.759
Mtb glucose medium: 22.19

compound: Cc1cc(C(=O)NCC2CCS(=O)(=O)C2)ccc1NC(=O)c1ccco1 (stereo not drawn)
Mtb cholesterol medium: -21.26 & -14.14
Mtb glucose medium: -19.75

compound: CCOc1ccc(C#N)cc1NCC(=O)NC(=O)NC
Mtb cholesterol medium: 1.888
Mtb glucose medium: -2.079 & -1.37

compound: CC(C)n1cnnc1SCCN(C)c1ccccc1
Mtb cholesterol medium: 4.247
Mtb glucose medium: -0.5515

compound: CCCc1cc(C(=O)NCCC2=CCCCC2)[nH]n1
Mtb cholesterol medium: 12.23
Mtb glucose medium: 8.724

compound: Cc1nnsc1CN(C)C(=O)CN1CC2(CCNCC2)OC1=O
Mtb cholesterol medium: 7.069
Mtb glucose medium: 21.18

compound: CC(C)Cc1cc(NC(=O)c2ccccc2F)n(C)n1
Mtb cholesterol medium: 27.74
Mtb glucose medium: 43.39

compound: CC(C)n1cnnc1CN(C)Cc1ccc(CN(C)S(C)(=O)=O)o1
Mtb cholesterol medium: 4.938
Mtb glucose medium: -17.42 & 7.63

compound: CCOCCNc1nc(C2CCCC2)nc2c1cnn2C
Mtb cholesterol medium: 4.483
Mtb glucose medium: -0.1634 & 11.76

compound: COC(=O)[C@H](CSC)Nc1nc(C2CCCC2)nc2c1cnn2C
Mtb cholesterol medium: -6.837
Mtb glucose medium: -18.86

compound: Cc1cc(C)cc(OCC(O)CN2CCN(c3nccs3)CC2)c1 (stereo not drawn)
Mtb cholesterol medium: 7.812 & 5.59
Mtb glucose medium: -12.67

compound: c1cncc(-c2ccc3c(c2)C2(CCNCC2)CC3)c1
Mtb cholesterol medium: -45.13
Mtb glucose medium: -60.78 & -0.8428

compound: CC1=CC(C)(C)N(CN2C(=O)c3ccccc3C2=O)c2ccc(C)cc21
Mtb cholesterol medium: -13.95
Mtb glucose medium: 11.1

compound: O=C(c1cccn1Cc1cccs1)N1CCCC1Cn1cccn1 (stereo not drawn)
Mtb cholesterol medium: 6.701
Mtb glucose medium: 2.754

compound: Cc1nnc([C@H]2CCN(CCCc3ccccc3)C2)o1
Mtb cholesterol medium: -7.326
Mtb glucose medium: -4.815 & -33.71

compound: Fc1ccccc1Sc1ccccc1CNC1=NCCN1.I
Mtb cholesterol medium: 14.65
Mtb glucose medium: 37.7 & 14.66

compound: Cc1nn(C)c(N2CCOCC2)c1CNC1COc2ccccc2C1 (stereo not drawn)
Mtb cholesterol medium: -18.36
Mtb glucose medium: -71.94

compound: Cc1nnc(C(C)Nc2cccc(COCCOC(C)C)c2)o1 (stereo not drawn)
Mtb cholesterol medium: -19.85
Mtb glucose medium: -6.153 & -0.3671

compound: CCN(Cc1ccc(Cl)s1)S(=O)(=O)CCOC
Mtb cholesterol medium: 2.083
Mtb glucose medium: 7.397

compound: CCCc1cncnc1N1CCC2(CCC(=O)N(CCOC)C2)CC1
Mtb cholesterol medium: -30.84
Mtb glucose medium: 2.899

compound: O=C1CC2(CCN(Cc3ccc(-c4ccn[nH]4)s3)CC2)CN1
Mtb cholesterol medium: -12.66
Mtb glucose medium: 9.293 & 3.221

compound: CCc1nnc(CN(C)c2nccc(N3CCCC(O)C3)n2)o1 (stereo not drawn)
Mtb cholesterol medium: -32.23
Mtb glucose medium: -5.203 & -1.921

compound: Cl.O=C(O)C1(Cc2ccc(-c3cccs3)cc2)CCNC1 (stereo not drawn)
Mtb cholesterol medium: -1.406 & 1.744
Mtb glucose medium: -5.6

compound: CCn1ncc2c1CCCC2NCc1cc(Cl)c(OC)c(OC)c1 (stereo not drawn)
Mtb cholesterol medium: 15.27
Mtb glucose medium: 8.65

compound: OC(CN(Cc1ccccc1)Cc1ccncc1)c1ccco1 (stereo not drawn)
Mtb cholesterol medium: -5.659
Mtb glucose medium: -20.26

compound: CN(C)[C@H]1CCN(c2ccnc(C(=O)NCc3ccco3)c2)C1
Mtb cholesterol medium: 23.06
Mtb glucose medium: 30.86

Some entries from above, unchanged:

compound,Mtb cholesterol medium,Mtb glucose medium
CCC(=O)NC1CCCN(C(=O)c2ccc(OCC3CC3)nc2)C1 (stereo not drawn),-14.81,3.583 & -3.13
COCCCC1CCCCN1Cc1cn2cc(C)ccc2n1 (stereo not drawn),-10.32,-10.85
Cc1nnsc1CN(C)C(=O)CN1CC2(CCNCC2)OC1=O,7.069,21.18
CCCc1cc(C(=O)NCCC2=CCCCC2)[nH]n1,12.23,8.724
[H][C@@]12CCN(C(=O)COc3ccc(C)cc3)C[C@]1(COC)CCO2,6.521,-8.581
Cc1ccc2nc(CN3CCCCC3C(=O)N3CCOCC3)cn2c1 (stereo not drawn),-9.759,22.19